Measured data: PubChem BioAssay AID504791 (Drosophila RNAi Screening Center, 2011)
Test: 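Genes of the fly required for silencing by miRNA, siRNA or endo-siRNA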 (primary screen). Cells: Drosophila S2-derived reporter cells. Reagent: long dsRNA against Drosophila genes, about 150-250 ng dsRNA per well (siRNA assay); about 80-120 ng (miRNA assay). Time to read-out: about 5 days (siRNA assay); about 4 days (miRNA assay). Conditions: copper sulfate induction of reporters: 25 µM (siRNA assay); 200 mM stated (miRNA assay), 1-2 days before reading. Measured: 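Dual luciferase assay: Renilla to firefly signal ratio in each well, scaled to the mean ratio of its plate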. Hit rule: 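a well was a first-pass pick when its plate-scaled ratio rose above 1.5 (siRNA assay) or 1.6 (miRNA assay), or dropped below 0.6; a gene counted only if two separate dsRNAs agreed on retest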.
The screen tested about 23,000 reagents; shown is an unselected part of those that have a named target and a result. Over the whole deposit, 199 (0.86%) are marked active. 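Plate-scaled ratios behind the calls are not deposited; printed light signals are raw; many rows marked increased or decreased are still called inactive.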 A plus sign joins genes that one reagent is predicted to hit. Not stated in the record: the direction of the score.

| Gene | amplicon | stable siRNA reporter change | miRNA reporter change | stable assay Renilla, run 1 (luminescence) | stable assay firefly, run 1 (luminescence) | outcome |
| --- | --- | --- | --- | --- | --- | --- |
| CG9992 | DRSC20226 | – | – | 7454 | 5.06e5 | inactive |
| CG9992 | DRSC21643 | – | – | 8538 | 4.23e5 | inactive |
| CG3337 | DRSC15478 | – | – | 4120 | 4.02e5 | inactive |
| CG17715 | DRSC11950 | – | – | 8633 | 6.73e5 | inactive |
| levy | DRSC04289 | – | – | 5159 | 4.86e5 | inactive |
| TotZ (Turandot Z) | DRSC13450 | – | – | 3895 | 3.53e5 | inactive |
| Tsp96F (Tetraspanin 96F) | DRSC14147 | – | – | 8330 | 4.16e5 | inactive |
| CG8664 | DRSC20116 | – | – | 5546 | 4.23e5 | inactive |
| Pask (PAS kinase) | DRSC04337 | – | – | 15887 | 1.06e6 | inactive |
| Vha44 (Vacuolar H[+] ATPase 44kD subunit) | DRSC07572 | – | – | 7765 | 3.47e5 | inactive |
| Vha44 (Vacuolar H[+] ATPase 44kD subunit) | DRSC07573 | – | – | 6063 | 2.76e5 | inactive |
| CG8492 | DRSC10984 | – | – | 4804 | 4.45e5 | inactive |
| CG8492 | DRSC21804 | – | – | 8895 | 4.47e5 | inactive |
| TBC1D23 (TBC1 domain family member 23) | DRSC00657 | – | – | 8202 | 4.31e5 | inactive |
| RhoGAP1A (Rho GTPase activating protein at 1A) | DRSC20649 | – | – | 4679 | 3.01e5 | inactive |
| RhoGAP1A (Rho GTPase activating protein at 1A) | DRSC20651 | – | – | 4819 | 2.60e5 | inactive |
| Pcif1 (Phosphorylated CTD-interacting factor 1) | DRSC11655 | – | – | 12378 | 4.18e5 | inactive |
| Met75Ca + Met75Cb | DRSC09549 | – | – | 5047 | 4.83e5 | inactive |
| Met75Ca + Met75Cb | DRSC11221 | – | – | 7218 | 3.57e5 | inactive |
| CG32809 | DRSC18507 | – | – | 4971 | 4.16e5 | inactive |
| CG32809 | DRSC18562 | – | – | 5832 | 3.25e5 | inactive |
| CG32809 | DRSC18592 | – | – | 7455 | 5.19e5 | inactive |
| Klp10A (Kinesin-like protein at 10A) | DRSC19601 | – | – | 8586 | 5.83e5 | inactive |
| obe (obelus) | DRSC15736 | – | – | 9222 | 6.63e5 | inactive |
| CG15533 | DRSC15069 | – | – | 7011 | 4.94e5 | inactive |
| Cyp28a5 (Cytochrome P450 28a5) | DRSC03297 | – | – | 8615 | 1.92e6 | inactive |
| Bap55 (Brahma associated protein 55kD) | DRSC07000 | reporter ratio lowered past the hit cutoff | – | 8850 | 6.51e5 | inactive |
| CkIIalpha-i1 (CKII-alpha subunit interactor-1) | DRSC11115 | – | – | 9898 | 4.01e5 | inactive |
| Lpin (Lipin) | DRSC07241 | – | reporter ratio lowered past the hit cutoff | 8842 | 4.46e5 | inactive |
| CG11404 | DRSC11656 | – | – | 7286 | 3.84e5 | inactive |
| CG14502 | DRSC06473 | – | – | 8974 | 3.37e5 | inactive |
| CG16904 | DRSC15161 | – | – | 8422 | 4.14e5 | inactive |
| Mrgn1 (Mahogunin ring finger 1) | DRSC20223 | – | – | 8573 | 6.03e5 | inactive |
| CG33648 | DRSC01387 | – | – | 5210 | 3.73e5 | inactive |
| CG31549 | DRSC21688 | – | – | 8777 | 3.85e5 | inactive |
| Ugt35A1 (UDP-glycosyltransferase family 35 member A1) | DRSC16892 | – | – | 7890 | 3.80e5 | inactive |
| Trf4-2 (Topoisomerase related function 4-2) | DRSC15237 | – | – | 6922 | 3.69e5 | inactive |
| Fie (Fire exit) | DRSC08158 | – | – | 8448 | 4.42e5 | inactive |
| CG6470 | DRSC19994 | – | – | 8594 | 3.74e5 | inactive |
| mRpL42 (mitochondrial ribosomal protein L42) | DRSC06235 | – | – | 5872 | 4.17e5 | inactive |
| und (uninitiated) | DRSC03629 | – | – | 5231 | 5.69e5 | inactive |
| CG1628 | DRSC18109 | – | – | 7167 | 3.73e5 | inactive |
| lncRNA:CR32385 (long non-coding RNA:CR32385) | DRSC22966 | – | – | 4667 | 4.74e5 | inactive |
| Arp10 (Actin-related protein 10) | DRSC19448 | – | – | 7918 | 5.02e5 | inactive |
| ZnT86D (Zinc transporter 86D) | DRSC16091 | – | – | 6031 | 3.55e5 | inactive |
| Cpr67Fb (Cuticular protein 67Fb) | DRSC10314 | – | – | 5504 | 3.54e5 | inactive |
| neo (neyo) | DRSC16316 | – | – | 8490 | 4.87e5 | inactive |
| CG5674 | DRSC02874 | reporter ratio raised past the hit cutoff | – | 5111 | 1.68e5 | inactive |
| CG5674 | DRSC23176 | – | – | 3420 | 2.63e5 | inactive |
| SKIP (Shal K[+] channel interacting protein) | DRSC14713 | – | – | 7186 | 3.17e5 | inactive |
| SKIP (Shal K[+] channel interacting protein) | DRSC14714 | – | – | 8605 | 2.83e5 | inactive |
| SKIP (Shal K[+] channel interacting protein) | DRSC15864 | – | – | 6774 | 3.55e5 | inactive |
| SKIP (Shal K[+] channel interacting protein) | DRSC16195 | – | – | 4870 | 4.03e5 | inactive |
| SKIP (Shal K[+] channel interacting protein) | DRSC16196 | reporter ratio lowered past the hit cutoff | – | 2379 | 3.66e5 | inactive |
| CG14324 | DRSC14803 | – | – | 8890 | 4.68e5 | inactive |
| Oatp30B (Organic anion transporting polypeptide 30B) | DRSC02727 | – | – | 5207 | 4.53e5 | inactive |
| CG8907 | DRSC16453 | – | – | 8491 | 3.40e5 | inactive |
| CG9459 | DRSC16496 | – | – | 6215 | 3.94e5 | inactive |
| Ldsdh1 (Lipid droplet subset dehydrogenase 1) | DRSC18219 | – | – | 5378 | 3.38e5 | inactive |
| CG33919 | DRSC04940 | – | – | 4435 | 4.19e5 | inactive |
| Fibp | DRSC11031 | – | – | 9336 | 3.83e5 | inactive |
| lncRNA:CR30055 (long non-coding RNA:CR30055) | DRSC22439 | – | – | 4535 | 4.70e5 | inactive |
| CG14410 | DRSC19596 | – | – | 5676 | 4.88e5 | inactive |
| CG15207 (retired record) | DRSC19653 | reporter ratio raised past the hit cutoff | – | 3496 | 94162 | inactive |
| CG15207 (retired record) | DRSC22791 | – | – | 3988 | 3.69e5 | inactive |
| ave (aveugle) | DRSC05502 | – | – | 6562 | 4.58e5 | inactive |
| ave (aveugle) | DRSC28562 | – | reporter ratio lowered past the hit cutoff | – | – | inactive |
| CG7227 | DRSC03032 | – | – | 1.76e5 | 1.15e5 | inactive |
| Sgs5bis | DRSC16263 | – | – | 6596 | 4.52e5 | inactive |
| Kdm5 (Lysine demethylase 5) | DRSC03133 | – | – | 20722 | 4.43e5 | inactive |
| CG5758 | DRSC02889 | – | – | 4495 | 4.30e5 | inactive |
| CG5758 | DRSC02890 | – | – | 7366 | 3.40e5 | inactive |
| S-Lap4 (Sperm-Leucylaminopeptidase 4) | DRSC10957 | reporter ratio lowered past the hit cutoff | – | 5148 | 5.74e5 | inactive |
| spn-F | DRSC14475 | – | – | 10115 | 4.58e5 | inactive |
| CG12056 | DRSC17796 | – | – | 7063 | 4.92e5 | inactive |
| CG43867 | DRSC17582 | – | – | 8219 | 3.23e5 | inactive |
| CG43867 | DRSC17836 | – | – | 6772 | 3.98e5 | inactive |
| CG43867 | DRSC17837 | – | – | 7691 | 4.21e5 | inactive |
| CG43867 | DRSC17943 | – | – | 6700 | 3.51e5 | inactive |
| Acp53C14b (Accessory gland protein 53C14b) | DRSC06569 | – | – | 6232 | 3.02e5 | inactive |
| CG40198 | DRSC21068 | – | – | 4183 | 3.81e5 | inactive |
| THG (tRNA-histidine guanylyltransferase) | DRSC01896 | – | – | 6556 | 3.06e5 | inactive |
| Ufsp2 (UFM1 specific peptidase 2) | DRSC10231 | – | – | 7819 | 2.72e5 | inactive |

Targets listed so far whose gene name begins with A or a (4):
| Gene | amplicon | stable siRNA reporter change | miRNA reporter change | stable assay Renilla, run 1 (luminescence) | stable assay firefly, run 1 (luminescence) | outcome |
| --- | --- | --- | --- | --- | --- | --- |
| Arp10 (Actin-related protein 10) | DRSC19448 | – | – | 7918 | 5.02e5 | inactive |
| ave (aveugle) | DRSC05502 | – | – | 6562 | 4.58e5 | inactive |
| ave (aveugle) | DRSC28562 | – | reporter ratio lowered past the hit cutoff | – | – | inactive |
| Acp53C14b (Accessory gland protein 53C14b) | DRSC06569 | – | – | 6232 | 3.02e5 | inactive |
